Data: paper PMC6864981
These are yes or no findings as the source states them, for the method shown. Binding seen in cells or lysates may run through a third protein. Some binding calls cover weakened binding; strength is not graded here.

Protein sequences, listed by entry. Tags and fused reporters are not part of them. Residues count along the entry.
UniProt P30101, residues 25-505: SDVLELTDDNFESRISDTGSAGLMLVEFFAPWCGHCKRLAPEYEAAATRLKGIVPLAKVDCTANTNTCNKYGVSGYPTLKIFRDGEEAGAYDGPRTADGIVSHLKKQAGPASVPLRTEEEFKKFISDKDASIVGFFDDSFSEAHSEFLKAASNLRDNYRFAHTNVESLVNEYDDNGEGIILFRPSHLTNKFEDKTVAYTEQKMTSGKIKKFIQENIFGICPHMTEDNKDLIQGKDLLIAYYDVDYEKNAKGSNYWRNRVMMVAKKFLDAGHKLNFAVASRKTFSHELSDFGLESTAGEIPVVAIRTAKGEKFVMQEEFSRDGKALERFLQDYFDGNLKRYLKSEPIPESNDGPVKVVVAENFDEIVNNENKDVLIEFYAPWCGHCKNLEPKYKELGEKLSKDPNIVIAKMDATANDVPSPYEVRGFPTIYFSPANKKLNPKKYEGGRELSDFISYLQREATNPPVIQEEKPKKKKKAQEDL
UniProt P40763: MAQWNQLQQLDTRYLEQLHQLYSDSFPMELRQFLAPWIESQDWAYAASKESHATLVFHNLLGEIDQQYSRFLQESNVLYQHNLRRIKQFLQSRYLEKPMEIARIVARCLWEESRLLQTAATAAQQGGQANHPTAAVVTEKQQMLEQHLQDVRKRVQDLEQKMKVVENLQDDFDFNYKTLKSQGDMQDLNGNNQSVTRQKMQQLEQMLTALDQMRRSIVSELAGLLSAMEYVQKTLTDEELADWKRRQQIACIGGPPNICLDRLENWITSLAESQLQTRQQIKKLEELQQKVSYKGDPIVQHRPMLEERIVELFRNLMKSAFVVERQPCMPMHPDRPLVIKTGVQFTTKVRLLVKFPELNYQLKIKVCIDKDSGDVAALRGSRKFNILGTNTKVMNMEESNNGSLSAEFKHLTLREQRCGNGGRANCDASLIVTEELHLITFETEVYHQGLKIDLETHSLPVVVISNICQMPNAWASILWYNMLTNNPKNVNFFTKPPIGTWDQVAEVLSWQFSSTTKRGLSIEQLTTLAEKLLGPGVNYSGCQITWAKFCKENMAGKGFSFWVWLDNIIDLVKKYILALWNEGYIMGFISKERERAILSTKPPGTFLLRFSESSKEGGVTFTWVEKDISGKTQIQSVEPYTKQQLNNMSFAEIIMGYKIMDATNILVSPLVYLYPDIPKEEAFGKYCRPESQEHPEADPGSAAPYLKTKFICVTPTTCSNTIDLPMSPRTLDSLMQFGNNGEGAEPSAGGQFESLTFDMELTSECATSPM

Assays:
[1] = molecular target: ERp57 (human (endogenous in A498)) (UniProt P30101); experiment: co-IP; A498 cells transfected with pWPI-ERp57 or empty vector, lysed in RIPA; lysates immunoprecipitated with anti-ERp57, protein A-agarose; STAT3 detected by Western blot
[2] = molecular target: ERp57 (human (endogenous in A498)) (UniProt P30101); experiment: proximity ligation; A498 cells (transfected with pWPI-ERp57 or empty vector), fixed with 4% paraformaldehyde; anti-ERp57 and anti-STAT3, Duolink in situ PLA kits, confocal microscopy

In the case of “signal transducer and activator of transcription 3 (STAT3) (from UniProt P40763 1-770)”, the binding [1] is reported as “binds” and the binding [2] is reported as “binds”.
